{"source": "patent US20060293228A1", "about": "“Therapeutic compositions and methods using transforming growth factor-beta mimics” (priority 2005, published 2006)", "key": {"[1]": {"test_system": "contact dermatitis on both hands", "format": "in vivo, human", "settings": "lotion approximately 0.01%, once per day, about 0.25 ml per hand", "source_text": "A person had suffered from contact dermatitis on both hands for approximately 5 to 6 years. Signs of dermatitis, such as rash, itching, crustiness, thin skin (steroids) when flexed hand would start bleeding where lines, were apparent over approximately 100 cm^2 of the right and left hands, respectively (all of palm and fingers). The individual applied a lotion comprising cytomodulin (SEQ ID NO: 1) at a concentration of about approximately 0.01% once per day at night. The amount applied was about 0.25 ml per hand. After 3-4 days healing of the dermatitis was apparent. In approximately two weeks the dermatitis was completely healed."}, "[2]": {"test_system": "human dermal fibroblasts", "experiment": "Expression of type I collagen, TGF-β and collagenase in human dermal fibroblasts", "format": "cell-based"}, "[3]": {"test_system": "NRK-49 F fibroblasts", "experiment": "Growth and colony formation by NRK-49 F fibroblasts in soft agar", "format": "cell-based", "method": "The original assay for TGF-β, the ability to promote anchorage independent growth of normal fibroblasts is still one of the hallmarks of TGF-β activity. NRK49 F fibroblasts were grown at 37° C. in DEM supplemented with 10% fetal calf serum. […] To this, either 100 nM TGF-β (positive control) or 100 nM cytomodulin was added. NRK49 F fibroblasts (5×10^4 cells/ml) were mixed with 0.3% agar were plated on the bottom of 35 mm culture dishes. Colony formation was observed starting on day 3 of culture."}, "[4]": {"test_system": "contact dermatitis (sensitivity to lipstick)", "experiment": "Treatment of contact dermatitis of the lips (Example 8, case report)", "format": "in vivo, human", "settings": "lotion about 0.001%, person"}, "[5]": {"test_system": "human osteogenic sarcoma (HOS) cell line", "experiment": "Expression of osteoblast markers, type I collagen and TGF-β in HOS cells", "format": "cell-based"}, "[6]": {"test_system": "Mv-1-Lu mink lung epithelial cells", "experiment": "Inhibition of DNA synthesis (3H-thymidine incorporation) of Mv-1-Lu mink lung epithelial cells", "format": "cell-based", "method": "The effect of TGF-β and cytomodulin were evaluated by determining the rate of [1H]thymidine incorporation into total acid-insoluble DNA and cell number. See generally, Sampath et al., J. Biol. Chem., 267, pp. 20352-20362 (1992). DNA synthesis rates were determined in triplicate cultures after 24 hour treatment with various concentrations (10^-9 M to 10^-6 M) of either TGF-β or cytomodulin (which was synthesized by the Merrifield method) by adding [methyl-3H]thymidine (2 uCi/ml, 80 Ci/mmol) for 6 hours before the termination of the culture. Incorporation was terminated by aspiration of the medium, and after washing three times with phosphate-buffered saline, the trichloroacetic acid (10%)-precipitated radioactive DNA was extracted with 1.0% (w/v) sodium dodecyl sulfate, 0.1 M NaOH and quantitated by liquid scintillation counting. For cell number determination, 1×10^5 cells were plated in flasks in MEM containing 10% FBS, and after 24 hours, the growth medium was replaced with serum-free medium containing various conceptions of TGF-β and cytomodulin. Triplicate cultures were harvested every 24 hours for the duration of 7 days, and the cell number was determined by counting cells released by trypsin digestion in a fixed volume hemacytometer. […]"}, "[7]": {"test_system": "insect bite", "format": "in vivo, human", "settings": "lotion about 0.001%, person allergic to insect bites", "source_text": "A person reported that they were very allergic to insect bites, which usually made a large red welt, then turned purple and looked like a severe bruise, lasting for about a week."}, "[8]": {"test_system": "minor cuts and burns", "experiment": "Treatment of minor cuts and burns (Example 6, case report)", "format": "in vivo, human", "settings": "lotion about 0.001%"}, "[9]": {"test_system": "deep incisional wound on the hand", "experiment": "Human incisional wound healing (Example 5, case report)", "format": "in vivo"}, "[10]": {"test_system": "acne", "experiment": "Treatment of acne (Example 7, case report)", "format": "in vivo, human", "settings": "lotion about 0.001%, daily"}}, "note": "Where two headings read alike, the source gives them in different places. At least one peptide structure holds a part that was inferred or is arguable (an end, a ring closure or a residue). Where a SMILES comes first, the peptide text is derived from it."}
{"compound": "CC(C)[C@H](NC(=O)[C@H](CC(N)=O)NC(=O)[C@H](C)N)C(=O)N[C@@H](C)C(=O)N[C@@H](CCC(=O)O)C(=O)N[C@@H](CC(N)=O)C(=O)N[C@@H](C)C(=O)O", "note": "[cytomodulin, Ala-Asn-Val-Ala-Glu-Asn-Ala] (H-ANVAENA-OH)", "values": [{"measurement": "time until the dermatitis was completely healed", "setting": "[1]", "value": "approximately two"}, {"measurement": "time until healing of the dermatitis was apparent", "setting": "[1]; person", "value": "3 to 4", "unit": "days"}, {"measurement": "expression of type I collagen", "setting": "[2]", "value": "increased expression"}, {"measurement": "growth and colony formation of NRK-49 F cells in soft agar (in words)", "setting": "[3]", "value": "growth and colony formation"}, {"measurement": "growth characteristics of the colonies over time, compared with TGF-β cultures", "setting": "[3]; 100 nM", "value": "similar"}, {"measurement": "colony formation in soft agar", "setting": "[3]; 100 nM, medium with EGF and PDGF, observed from day 3", "value": "formed colonies to approximately the same extent as the TGF-β cultures"}, {"measurement": "colony formation without EGF and PDGF", "setting": "[3]; absence of EGF and PDGF", "value": "did induce colony formation"}, {"measurement": "time until the irritation had subsided nearly completely", "setting": "[4]", "value": "≤ 24", "unit": "h"}, {"measurement": "expression of TGF-β", "setting": "[5]", "value": "increased the expression"}, {"measurement": "expression of alkaline phosphatase", "setting": "[5]", "value": "increased the expression"}, {"measurement": "expression of type I collagen", "setting": "[5]", "value": "increased the expression"}, {"measurement": "osteonectin (osteoblast marker)", "setting": "[5]", "value": "specifically stimulate"}, {"measurement": "expression of alkaline phosphatase", "setting": "[5]; listed as Cytomodulin", "value": "specifically stimulate"}, {"measurement": "inhibition of DNA synthesis / proliferation of Mv-1-Lu cells (in words)", "setting": "[6]", "value": "inhibition of DNA synthesis"}, {"measurement": "growth inhibition of Mv-1-Lu cells compared with TGF-β", "setting": "[6]; same concentration range, 10^-9 M to 10^-6 M", "value": "at least as much as TGF-β"}, {"measurement": "course of the insect bite", "setting": "[7]", "value": "disappeared by the next day"}, {"measurement": "healing of minor cuts and burns", "setting": "[8]", "value": "healing took place in a day or two"}, {"measurement": "time from first application until the wound had closed and the stitches were removed", "setting": "[9]; suspension in generic hand cream 40 micrograms/ml, approximately 0.5 ml daily, 7 days post-injury", "value": "≤ 6", "unit": "days"}, {"measurement": "day by which the location of the incision was no longer visible to the naked eye", "setting": "[9]; suspension in hand cream 40 micrograms/ml daily from Day 2", "value": "≤ 10", "unit": "days"}, {"measurement": "stitches removed earlier than the surgeon had recommended", "setting": "[9]; suspension in hand cream 40 micrograms/ml daily, recommended 10-12 days", "value": "four to six"}, {"measurement": "scarring of the healed wound", "setting": "[9]; suspension in hand cream 40 micrograms/ml daily, wound penetrated the dermis", "value": "no visible scarring"}, {"measurement": "scarring after the acne was gone", "setting": "[10]", "value": "no significant scarring"}, {"measurement": "time until the acne was gone", "setting": "[10]", "value": "one"}, {"measurement": "time until the acne started to clear", "setting": "[10]; person", "value": "≤ 24", "unit": "h"}]}
